{"sequences": {"note": "The chains behind the UniProt entries cited, without tags or fusion partners.", "UniProt P22001, whole entry": "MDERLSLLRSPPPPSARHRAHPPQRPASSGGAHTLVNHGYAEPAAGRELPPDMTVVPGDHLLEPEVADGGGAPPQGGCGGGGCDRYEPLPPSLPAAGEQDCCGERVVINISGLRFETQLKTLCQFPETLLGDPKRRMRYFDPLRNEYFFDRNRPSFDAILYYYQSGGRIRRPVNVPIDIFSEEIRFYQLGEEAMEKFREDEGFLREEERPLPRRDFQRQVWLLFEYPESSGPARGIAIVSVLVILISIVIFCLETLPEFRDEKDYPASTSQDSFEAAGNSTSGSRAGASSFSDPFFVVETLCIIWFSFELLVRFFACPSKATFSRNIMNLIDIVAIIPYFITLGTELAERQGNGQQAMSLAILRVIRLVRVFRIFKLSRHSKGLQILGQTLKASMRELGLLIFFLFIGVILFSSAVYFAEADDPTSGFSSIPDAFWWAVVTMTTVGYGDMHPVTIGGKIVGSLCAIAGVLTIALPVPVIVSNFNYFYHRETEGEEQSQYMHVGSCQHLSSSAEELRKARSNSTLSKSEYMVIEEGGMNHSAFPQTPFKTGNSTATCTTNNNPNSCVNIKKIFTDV"}, "source": "patent US20230026611A1", "about": "“ARYL HETEROCYCLIC COMPOUNDS AS Kv1.3 POTASSIUM SHAKER CHANNEL BLOCKERS” (D. E. Shaw Research, LLC, priority 2019, published 2023)", "target": "Kv1.3 potassium channel (Homo sapiens, UniProt P22001)", "assay": "Kv1.3 potassium channel blocker activity, automated whole-cell patch clamp (Patchliner) in CHO-K1 cells stably expressing Kv1.3", "conditions": "read-out: Kv1.3 IC50, current inhibition", "method": "Example 82. Evaluation of Kv1.3 potassium channel blocker activities\nThis assay is used to evaluate the disclosed compounds' activities as Kv1.3 potassium channel blockers.\nCHO-K1 cells stably expressing Kv1.3 were grown in DMEM containing 10% heat-inactivated FBS, 1 mM sodium pyruvate, 2 mM L-glutamine, and G418 (500 μg/ml). Cells were grown in culture flasks at 37° C. in a 5% CO2-humidified incubator.\nThe cells were bathed in an extracellular solution containing 140 mM NaCl, 4 mM KCl, 2 mM CaCl2), 1 mM MgCl2, 5 mM glucose, 10 mM HEPES; pH adjusted to 7.4 with NaOH; 295-305 mOsm. The internal solution contained 50 mM KCl, 10 mM NaCl, 60 mM KF, 20 mM EGTA, 10 mM HEPES; pH adjusted to 7.2 with KOH; 285 mOsm. All compounds were dissolved in DMSO at 30 mM. Compound stock solutions were freshly diluted with external solution to concentrations of 30 nM, 100 nM, 300 nM, 1 μM, 3 μM, 10 μM, 30 μM and 100 μM. The highest content of DMSO (0.3%) was present in 100 μM.\nThe currents were evoked by applying 100 ms depolarizing pulses from −90 mV (holding potential) to +40 mV were applied with 0.1 Hz frequency. Control (compound-free) and compound pulse trains for each compound concentration applied contained 20 pulses. 10-second breaks were used between pulse trains (see Table A below). […]", "note": "pIC50: −log10 of the molar value. The match of structure and compound is tentative.", "data": [{"smiles": "Oc1cc(Cl)c(Cl)cc1C1CCNC1", "note": "(single isomer, unassigned)", "values": [{"measurement": "pIC50", "result": "> 5.00"}]}, {"smiles": "N#Cc1ccc(O)c(C2CCNCC2)c1Cl", "values": [{"measurement": "pIC50", "result": "> 5.00"}]}]}
